From the supplement of paper PMC10727501
This is one part of the list. Repeats in this data set agree poorly, so a single value says little.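 Free-swimming zebrafish larvae were assessed for O-bend response probability to dark flashes (naive: first five; training: remaining flashes across four 60-flash blocks; test: later 60-flash block) and for OMR turning toward alternating leftward/rightward LED motion. Six treated larvae were compared against sixty 0.1% DMSO controls; hits required |SSMD|≥2.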

Tested on: Danio rerio larvae (5 dpf, TLF)
Experiment: OMR-Perf (SSMD vs DMSO vehicle); higher = higher than vehicle (e.g. higher dark-flash O-bend response probability, or better optomotor performance)
Settings: 10 µM; pre-incubation: 30-90 min

Row | SMILES | OMR-Perf
1 | CC(=O)S[C@@H]1CC2=CC(=O)CC[C@]2(C)[C@@H]2CC[C@@]3(C)[C@@H](CC[C@]34CCC(=O)O4)[C@@H]21 [Spironolactone] | -0.0892
2 | CC[C@@H](CO)NCCN[C@@H](CC)CO.Cl.Cl [Ethambutol HCl] | -0.275
3 | C#CCN(C)CCCOc1ccc(Cl)cc1Cl.Cl [Clorgyline HCl] | -0.676
4 | O=C(NOC[C@H](O)CO)c1ccc(F)c(F)c1Nc1ccc(I)cc1F | -0.928
5 | COc1cc2ncnc(Nc3cccc(Br)c3)c2cc1OC.Cl | 0.255
6 | CC(C(=O)[O-])c1cccc(Oc2ccccc2)c1.CC(C(=O)[O-])c1cccc(Oc2ccccc2)c1.[Ca+2] (stereo unspecified) [Fenoprofen Calcium] | -0.425
7 | Cc1nccn1CC1CCc2c(c3ccccc3n2C)C1=O.Cl (stereo unspecified) [Ondansetron HCl] | -0.197
8 | COc1cc2c(cc1OC)[C@@H]1Cc3ccc(OC)c(OC)c3CN1CC2 [Rotundine] | -0.45
9 | CC(C)(C(=O)O)c1ccc(C(O)CCCN2CCC(C(O)(c3ccccc3)c3ccccc3)CC2)cc1.Cl (stereo unspecified) [Fexofenadine HCl] | -0.542
10 | Cc1cccc(C#Cc2ccccc2)n1 | -0.41
11 | C[C@H]1C[C@@H]2[C@@H]([C@H](O)C[C@@]3(C)[C@H]2CC[C@@]3(O)C(=O)CO)[C@@]2(C)C=CC(=O)C=C12 [Methylprednisolone] | 0.0911
